## Primary screen of a compound library

Data taken from ChEMBL document CHEMBL3988442, “University of Dundee, Small-Polar-MMV Screening Library” (2021).

A: 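Whole-parasite assay of Trypanosoma brucei over 72 hours; the read-out is not stated. Concentration: 30 µM. Direction is inferred from retests: higher values go with stronger inhibition. Values scatter widely below zero; nearly all retest evidence comes from the higher of the two concentrations used. About 64,000 compounds were tested under these conditions; 1.5% (about 940) showed 50% or more at least once.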
B: 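Cell assay of Leishmania donovani living inside macrophages; the read-out is not stated. Compounds at 30 µM. Higher reads as stronger inhibition (inferred: compounds with an IC50 in retests scored well above the rest). Of about 69,000 compounds tested this way, about 1,000 (1.5%) reached 50% or more in at least one test.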
C: 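Assay of Toxoplasma gondii numbers, read through their beta-galactosidase reporter with a colour substrate. Concentration: 10 µM. The record gives no direction; the compounds picked for IC50 retests had high values, so higher reads as fewer parasites. About 67,000 compounds were tested under these conditions; 0.38% (about 260) showed 50% or more at least once.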

Results are given as percent effect.
The controls that fix the scale are not given in the record; negative values are as filed.
Compounds were drawn at random from those tested, without regard to their results.
Two or more numbers in one place are separate tests of the same structure; such repeats can differ widely.

{"compound": "Cc1cn2nc(N3CCCN(Cc4noc(C)n4)CC3)sc2n1", "A": 15.23, "B": 22.53, "C": 3.993}
{"compound": "CCn1cc(S(=O)(=O)N2CCCC3(CC=CNC3=O)C2)c(C)n1", "stereo": "stereo not given", "B": -6.987}
{"compound": "O=C1NC2(CCN(CCc3ccccc3)CC2)CC1c1ccccc1", "stereo": "stereo not given", "B": -8.816, "C": -3.913}
{"compound": "Cc1nnc(C(C)N2CCN(Cc3ccc4c(c3)OCO4)CC2)o1", "stereo": "stereo not given", "A": -37.16, "B": 20.17, "C": 2.7}
{"compound": "CCOc1ncccc1CNC(=O)c1cccc(C)n1", "A": 4.992, "B": 24.06, "C": -10.64}
{"compound": "Clc1ccc(-c2cnc(CNC3CCc4ncnn4C3)o2)cc1", "stereo": "stereo not given", "A": 14.76, "B": 5.338, "C": 1.821}
{"compound": "O=C(O)C(F)(F)F.[H][C@@]12CCN(C3CCOCC3)C[C@]1([H])O[C@@H](C(=O)N1CCOCC1)C2", "A": -42.28, "B": -22.99, "C": 0.4274}
{"compound": "CCc1nnc(CN(CC)C(=O)C2CC(=O)N(C3CC3)C2)o1", "stereo": "stereo not given", "A": -3.675, "B": -11.44, "C": 17.67}
{"compound": "CCOc1ccccc1CNC(=O)Cn1ccc2c(C)nn(C)c2c1=O", "A": 11.48, "B": -4.508, "C": 18.73}
{"compound": "COc1ccc(CNC2CCN(c3ccccc3)C2)cc1O", "stereo": "stereo not given", "A": 3.107, "B": 8.17, "C": -3.048}
{"compound": "CCN1CCC(NC(=O)Cn2cc(C)c3ccccc32)CC1", "A": -13.64, "B": 1.672, "C": -2.152}
{"compound": "Cc1noc(C)c1CS(=O)(=O)CC(=O)N(C)Cc1cccc(F)c1", "A": -87.74, "B": 13.68, "C": 6.788}
{"compound": "CN(Cc1nnc(C2CC2)o1)C1CCN(CCc2cccs2)C1", "stereo": "stereo not given", "A": -41.74, "B": 0.1406, "C": 21.17}
{"compound": "COc1ccc(Cl)cc1CCNC(=O)NCc1cnn(C)c1C", "A": -6.308, "B": 12.27, "C": 22.38}
{"compound": "CCN(CC)C(CNC(=O)c1c(C)noc1C(C)C)c1ccsc1", "stereo": "stereo not given", "A": -2.634, "B": 26.36, "C": -11.91}
{"compound": "Cc1csc2c(=O)n3c(nc12)CCN(C(=O)c1ccnn1C)CC3", "A": 15.33, "B": "3.747 & 8.907", "C": 6.808}
{"compound": "O=C(C[S+]([O-])C1CCCC1)NCCOc1cccc(Cl)c1", "stereo": "stereo not given", "A": 10.28, "B": -39.74, "C": 7.23}
{"compound": "COc1c(C2CCCN2C(=O)c2cncnc2C)c(C)nn1C", "stereo": "stereo not given", "A": -17.22, "B": 3.882, "C": 1.78}
{"compound": "Cc1ccc(CN2CCC3(CC2)C(=O)N(C)c2ccccc23)s1.O=C(O)C(F)(F)F", "A": 35.77, "B": 16.5, "C": 9.842}
{"compound": "Cc1cc(C)n(C2CN(CC(=O)N(C)Cc3cnn(C)c3)C2)n1", "A": 17.09, "B": 9.905, "C": 10.7}
{"compound": "CCNC(=O)CNC(=O)Nc1cccc(Cl)c1SC(F)F", "A": -31.86, "B": 7.476, "C": -0.6321}
{"compound": "CN(Cc1cc(Br)c2c(c1)OCO2)Cc1cscn1", "A": -4.779, "B": 2.704, "C": -10.18}
{"compound": "CC(C)NC(=O)C(NC(=O)N1CCN(c2ccc(Cl)cc2)CC1)C(C)C", "stereo": "stereo not given", "A": 55.67, "B": -34.02, "C": -7.322}

Some entries from above, unchanged:

| Compound | A | B | C |
|---|---|---|---|
| `Cc1ccc(CN2CCC3(CC2)C(=O)N(C)c2ccccc23)s1.O=C(O)C(F)(F)F` | 35.77 | 16.5 | 9.842 |
| `Cc1csc2c(=O)n3c(nc12)CCN(C(=O)c1ccnn1C)CC3` | 15.33 | 3.747 & 8.907 | 6.808 |